{"source": "PubChem BioAssay AID1224830 (NIAID, 2016)", "test": "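Genes whose knock-down alters the TNF-alpha reporter response to LPS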 (primary screen)", "system": "human THP-1 monocytic leukaemia cells, TNF dual-luciferase reporter clone, PMA-differentiated to macrophage-like cells", "reagent": "siRNA pool against human genes, 50 nM", "duration": "LPS for 4 h, given about 3 days after siRNA transfection", "conditions": "bacterial LPS (TLR4 ligand), 10 ng/ml", "detection": "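Ratio of firefly to renilla light, scaled to the plate median and expressed as a robust z-score per replicate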", "direction": "TNF reporter robust z-score: higher = stronger TNF reporter response to LPS", "call rule": "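Each well counts as active if its z-score is over 2.8 or under -1.5; controls are left without a call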", "note": "Shown is a random part of about 18,000 deposited reagents. About 2,900 of them (16%) were called active. 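Calls are made per well; low scores hint the gene aids the LPS response, high scores that it dampens it.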 A number with no mark means an inactive call. Repeated entries: four replicate wells of each siRNA pool."}
{"target gene": "TDRP", "TNF reporter robust z-score": 0.13}
{"target gene": "TDRP", "TNF reporter robust z-score": -0.22}
{"target gene": "TDRP", "TNF reporter robust z-score": -0.51}
{"target gene": "TDRP", "TNF reporter robust z-score": 0.97}
{"target gene": "SEPTIN10", "TNF reporter robust z-score": -1.37}
{"target gene": "SEPTIN10", "TNF reporter robust z-score": -0.11}
{"target gene": "SEPTIN10", "TNF reporter robust z-score": -0.49}
{"target gene": "SEPTIN10", "TNF reporter robust z-score": 0.42}
{"target gene": "VPS36", "TNF reporter robust z-score": "-1.95 (active)"}
{"target gene": "VPS36", "TNF reporter robust z-score": "-1.76 (active)"}
{"target gene": "VPS36", "TNF reporter robust z-score": "-2 (active)"}
{"target gene": "VPS36", "TNF reporter robust z-score": "-2.01 (active)"}
{"target gene": "LDHB", "TNF reporter robust z-score": -1.08}
{"target gene": "LDHB", "TNF reporter robust z-score": -1.03}
{"target gene": "LDHB", "TNF reporter robust z-score": -0.89}
{"target gene": "LDHB", "TNF reporter robust z-score": -0.04}
{"target gene": "ARK2N", "TNF reporter robust z-score": -0.18}
{"target gene": "ARK2N", "TNF reporter robust z-score": 0.45}
{"target gene": "ARK2N", "TNF reporter robust z-score": -0.54}
{"target gene": "ARK2N", "TNF reporter robust z-score": 0.22}
{"target gene": "CLMN", "TNF reporter robust z-score": -0.79}
{"target gene": "CLMN", "TNF reporter robust z-score": -0.54}
{"target gene": "CLMN", "TNF reporter robust z-score": -0.21}
{"target gene": "CLMN", "TNF reporter robust z-score": -0.3}
{"target gene": "STK35", "TNF reporter robust z-score": -0.05}
{"target gene": "STK35", "TNF reporter robust z-score": 1.13}
{"target gene": "STK35", "TNF reporter robust z-score": 0.11}
{"target gene": "STK35", "TNF reporter robust z-score": 0.37}
{"target gene": "TCEA1", "TNF reporter robust z-score": -0.09}
{"target gene": "TCEA1", "TNF reporter robust z-score": -0.25}
{"target gene": "TCEA1", "TNF reporter robust z-score": 1.15}
{"target gene": "CARD10", "TNF reporter robust z-score": 1.48}
{"target gene": "CARD10", "TNF reporter robust z-score": 1.25}
{"target gene": "CARD10", "TNF reporter robust z-score": "8.88 (active)"}
{"target gene": "CARD10", "TNF reporter robust z-score": 0.07}
{"target gene": "WDFY2", "TNF reporter robust z-score": -0.2}
{"target gene": "WDFY2", "TNF reporter robust z-score": -0.27}
{"target gene": "WDFY2", "TNF reporter robust z-score": 0.31}
{"target gene": "WDFY2", "TNF reporter robust z-score": 1.34}
{"target gene": "FTSJ3", "TNF reporter robust z-score": "2.81 (active)"}
{"target gene": "FTSJ3", "TNF reporter robust z-score": 0.7}
{"target gene": "FTSJ3", "TNF reporter robust z-score": 0.82}
{"target gene": "FTSJ3", "TNF reporter robust z-score": 0.64}
{"target gene": "ZRANB1", "TNF reporter robust z-score": -0.74}
{"target gene": "ZRANB1", "TNF reporter robust z-score": -0.33}
{"target gene": "ZRANB1", "TNF reporter robust z-score": -0.03}
{"target gene": "ZRANB1", "TNF reporter robust z-score": -0.6}
